According to publication PMC10300122:
Results are given in words; binding and its absence hold for the method and conditions named. Binding seen in cells or lysates may run through a third protein. A yes stands for co-enrichment or nearness to the bait. Other partners may have been found.

The chains behind the UniProt entries cited, without tags or fusion partners.
UniProt Q6P6C2: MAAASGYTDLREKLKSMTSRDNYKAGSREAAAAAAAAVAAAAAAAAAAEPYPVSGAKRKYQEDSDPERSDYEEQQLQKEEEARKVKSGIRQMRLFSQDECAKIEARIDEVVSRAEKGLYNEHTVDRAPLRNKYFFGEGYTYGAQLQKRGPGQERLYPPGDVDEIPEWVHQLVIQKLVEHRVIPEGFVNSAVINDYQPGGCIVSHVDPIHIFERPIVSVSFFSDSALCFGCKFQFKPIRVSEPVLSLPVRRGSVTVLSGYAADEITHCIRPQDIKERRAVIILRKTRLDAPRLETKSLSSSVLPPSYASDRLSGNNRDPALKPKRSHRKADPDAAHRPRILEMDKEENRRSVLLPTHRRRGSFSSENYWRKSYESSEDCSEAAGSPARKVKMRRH

Target: wild-type ALKBH5-FLAG (UniProt Q6P6C2)
Assay: affinity purification with mass spectrometry; wild-type ALKBH5 or K235R plasmid cotransfected with the KAT8 vector into ALKBH5 KO HeLa cells; co-IPed complexes, silver-stained gel bands identified by nano-LC-MS/MS

binding: binds
B1: endogenous PSPC1 (protein, UniProt Q8WXF1 1-523)
chain: MMLRGNLKQVRIEKNPARLRALESAVGESEPAAAAAMALALAGEPAPPAPAPPEDHPDEEMGFTIDIKSFLKPGEKTYTQRCRLFVGNLPTDITEEDFKRLFERYGEPSEVFINRDRGFGFIRLESRTLAEIAKAELDGTILKSRPLRIRFATHGAALTVKNLSPVVSNELLEQAFSQFGPVEKAVVVVDDRGRATGKGFVEFAAKPPARKALERCGDGAFLLTTTPRPVIVEPMEQFDDEDGLPEKLMQKTQQYHKEREQPPRFAQPGTFEFEYASRWKALDEMEKQQREQVDRNIREAKEKLEAEMEAARHEHQLMLMRQDLMRRQEELRRLEELRNQELQKRKQIQLRHEEEHRRREEEMIRHREQEELRRQQEGFKPNYMENREQEMRMGDMGPRGAINMGDAFSPAPAGNQGPPPMMGMNMNNRATIPGPPMGPGPAMGPEGAANMGTPMMPDNGAVHNDRFPQGPPSQMGSPMGSRTGSETPQAPMSGVGPVSGGPGGFGRGSQGGNFEGPNKRRRY
